Values from PubChem BioAssay AID1159578 (Peter MacCallum Cancer Centre, 2015)

Assay: 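Genome-wide hunt for genes controlling movement of lymphatic endothelial cells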 (primary screen)
System: human lymphatic endothelial cells
Reagent: siRNA pool against human genes, 40 nM
Duration: 48 h after transfection
Read-out: 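Cells stained with dye and imaged after a scratch; covered wound area and nuclei counted, duplicates averaged, migration set against mock wells and turned into a robust z-score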
Direction: migration robust z-score: higher = faster migration into the scratch; migration relative to mock: higher = more scratch area covered than mock; nuclei per well: higher = more cells in the well
Active means: 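Migration changed when robust z exceeds 2 or falls below -2 and mean nuclei number is at least 3300; otherwise not called changed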
Calls: active = migration changed; inactive = no migration change, or too few cells
Here is one part, drawn at random, of about 18,000 reagents. In the full data, about 1,030 (5.7%) got an active call. 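Inactive calls also include pools with fewer than 3300 nuclei, whose migration was not assessed.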 Raw values vary from plate to plate and are shown uncorrected. No sequences are given here.

target gene | migration robust z-score | migration class with cell-count check | migration relative to mock | nuclei per well, duplicate mean | Outcome
NECAP1 | 0.53 | migration z between -2 and 2; enough cells | 1.02 | 5799 | inactive
ZNF775 | -2.04 | migration z below -2; enough cells | 0.36 | 5755 | active
JADE2 | 0.8 | migration z between -2 and 2; enough cells | 0.96 | 5820 | inactive
SMIM14 | -1.72 | under 3300 nuclei; migration not judged | 0.44 | 2808 | inactive
IL23A | 0.36 | migration z between -2 and 2; enough cells | 0.98 | 5280 | inactive
YPEL1 | -0.26 | migration z between -2 and 2; enough cells | 0.82 | 5935 | inactive
LYLDT1 | -2.02 | migration z below -2; enough cells | 0.36 | 6002 | active
ARHGEF9 | 0.86 | migration z between -2 and 2; enough cells | 1.11 | 5836 | inactive
UBE2D3 | 0.57 | migration z between -2 and 2; enough cells | 0.91 | 6226 | inactive
CNOT3 | 0.97 | migration z between -2 and 2; enough cells | 1.14 | 5928 | inactive
ASPDH | -0.12 | migration z between -2 and 2; enough cells | 0.85 | 5380 | inactive
KLHL8 | -0.65 | migration z between -2 and 2; enough cells | 0.72 | 4838 | inactive
ZDHHC3 | 0.88 | migration z between -2 and 2; enough cells | 0.98 | 5674 | inactive
ARL5B | -0.28 | migration z between -2 and 2; enough cells | 0.82 | 7634 | inactive
MORF4 | 0.5 | migration z between -2 and 2; enough cells | 0.9 | 5441 | inactive
PEX16 | 1.24 | migration z between -2 and 2; enough cells | 1.21 | 5656 | inactive
KCTD18 | 0.88 | migration z between -2 and 2; enough cells | 1.11 | 5442 | inactive
RASA3 | 0.44 | migration z between -2 and 2; enough cells | 0.89 | 5334 | inactive
TCEA1 | -0.46 | migration z between -2 and 2; enough cells | 0.72 | 6140 | inactive
TENT5C | -0.94 | migration z between -2 and 2; enough cells | 0.64 | 6118 | inactive
OTUD7B | -0.08 | migration z between -2 and 2; enough cells | 0.79 | 4914 | inactive
NDUFB9 | -0.16 | migration z between -2 and 2; enough cells | 0.77 | 5730 | inactive
COL13A1 | 0.2 | migration z between -2 and 2; enough cells | 0.94 | 5470 | inactive
SRD5A3 | 2.08 | migration z above 2; enough cells | 1.21 | 7242 | active
ZNF121 | 0.46 | migration z between -2 and 2; enough cells | 1 | 7528 | inactive
TSC22D2 | -0.5 | migration z between -2 and 2; enough cells | 0.76 | 6266 | inactive
NMI | 0.62 | migration z between -2 and 2; enough cells | 0.92 | 5450 | inactive
WDR26 | 0.49 | migration z between -2 and 2; enough cells | 1.01 | 7428 | inactive
LMAN2L | 0.2 | migration z between -2 and 2; enough cells | 0.94 | 6444 | inactive

Laid out differently: entries from further up
{"target gene":"KCTD18","migration robust z-score":0.88,"migration class with cell-count check":"migration z between -2 and 2; enough cells","migration relative to mock":1.11,"nuclei per well, duplicate mean":5442,"Outcome":"inactive"}
{"target gene":"RASA3","migration robust z-score":0.44,"migration class with cell-count check":"migration z between -2 and 2; enough cells","migration relative to mock":0.89,"nuclei per well, duplicate mean":5334,"Outcome":"inactive"}
{"target gene":"TCEA1","migration robust z-score":-0.46,"migration class with cell-count check":"migration z between -2 and 2; enough cells","migration relative to mock":0.72,"nuclei per well, duplicate mean":6140,"Outcome":"inactive"}
{"target gene":"TENT5C","migration robust z-score":-0.94,"migration class with cell-count check":"migration z between -2 and 2; enough cells","migration relative to mock":0.64,"nuclei per well, duplicate mean":6118,"Outcome":"inactive"}
{"target gene":"OTUD7B","migration robust z-score":-0.08,"migration class with cell-count check":"migration z between -2 and 2; enough cells","migration relative to mock":0.79,"nuclei per well, duplicate mean":4914,"Outcome":"inactive"}
{"target gene":"NDUFB9","migration robust z-score":-0.16,"migration class with cell-count check":"migration z between -2 and 2; enough cells","migration relative to mock":0.77,"nuclei per well, duplicate mean":5730,"Outcome":"inactive"}
{"target gene":"COL13A1","migration robust z-score":0.2,"migration class with cell-count check":"migration z between -2 and 2; enough cells","migration relative to mock":0.94,"nuclei per well, duplicate mean":5470,"Outcome":"inactive"}

Next entries:
target gene | migration robust z-score | migration class with cell-count check | migration relative to mock | nuclei per well, duplicate mean | Outcome
CCIN | -0.99 | migration z between -2 and 2; enough cells | 0.63 | 4600 | inactive
EYA3 | 0.73 | migration z between -2 and 2; enough cells | 0.94 | 5646 | inactive
TXNRD1 | 0.07 | migration z between -2 and 2; enough cells | 0.9 | 7460 | inactive
IFIT5 | -1.75 | migration z between -2 and 2; enough cells | 0.43 | 3922 | inactive
RARS1 | 0.86 | migration z between -2 and 2; enough cells | 0.97 | 4540 | inactive
BYSL | -0.9 | migration z between -2 and 2; enough cells | 0.66 | 5062 | inactive
NKX3-2 | 0.88 | migration z between -2 and 2; enough cells | 0.98 | 5772 | inactive
H4C16 | -1.87 | migration z between -2 and 2; enough cells | 0.4 | 5310 | inactive
MRAP2 | 2.68 | migration z above 2; enough cells | 1.58 | 5514 | active
ISCA1 | -0.79 | migration z between -2 and 2; enough cells | 0.68 | 4814 | inactive
EEF1D | -0.24 | migration z between -2 and 2; enough cells | 0.76 | 6660 | inactive
TTC39B | 0.19 | migration z between -2 and 2; enough cells | 0.94 | 4802 | inactive
DEFB135 | 0.87 | migration z between -2 and 2; enough cells | 1.12 | 5320 | inactive
AKAP13 | 0.99 | migration z between -2 and 2; enough cells | 1 | 5706 | inactive
FPR3 | -1.27 | migration z between -2 and 2; enough cells | 0.56 | 4708 | inactive
ZNF546 | -0.29 | migration z between -2 and 2; enough cells | 0.81 | 5546 | inactive
KIAA0586 | -1.63 | migration z between -2 and 2; enough cells | 0.46 | 3410 | inactive
USP39 | 0.62 | migration z between -2 and 2; enough cells | 0.92 | 5362 | inactive
PHETA2 | -1.04 | migration z between -2 and 2; enough cells | 0.61 | 5864 | inactive
WHR1 | -0.32 | migration z between -2 and 2; enough cells | 0.74 | 5104 | inactive
CNBD2 | 0 | migration z between -2 and 2; enough cells | 0.88 | 6243 | inactive
PCBP3 | 1.74 | migration z between -2 and 2; enough cells | 1.34 | 5199 | inactive
ARHGEF11 | -0.55 | migration z between -2 and 2; enough cells | 0.74 | 5648 | inactive
ASCL1 | -0.24 | migration z between -2 and 2; enough cells | 0.76 | 5260 | inactive
MFN1 | 0.86 | migration z between -2 and 2; enough cells | 0.97 | 6154 | inactive
STK32A | 0 | migration z between -2 and 2; enough cells | 0.8 | 5953 | inactive
SH3BP2 | 0.08 | migration z between -2 and 2; enough cells | 0.9 | 6228 | inactive
SLC25A11 | -0.83 | migration z between -2 and 2; enough cells | 0.64 | 4044 | inactive
SLC25A3 | -1.32 | migration z between -2 and 2; enough cells | 0.55 | 5656 | inactive
CEACAM16 | -1.15 | migration z between -2 and 2; enough cells | 0.58 | 5918 | inactive
STAU2 | 1.96 | migration z between -2 and 2; enough cells | 1.4 | 4838 | inactive
ADIPOR1 | -0.68 | migration z between -2 and 2; enough cells | 0.71 | 5981 | inactive
ARAP1 | -0.85 | migration z between -2 and 2; enough cells | 0.66 | 6071 | inactive
LGALS7B | -0.56 | migration z between -2 and 2; enough cells | 0.74 | 6042 | inactive
MCOLN1 | -0.57 | migration z between -2 and 2; enough cells | 0.7 | 5060 | inactive
ANKRD13C | -2.66 | migration z below -2; enough cells | 0.2 | 5942 | active
PTHLH | 2.09 | migration z above 2; enough cells | 1.43 | 5132 | active
EARS2 | 1.29 | migration z between -2 and 2; enough cells | 1.22 | 5665 | inactive
UBXN2A | 0.76 | migration z between -2 and 2; enough cells | 1.08 | 5446 | inactive
HELT | -0.02 | migration z between -2 and 2; enough cells | 0.88 | 5096 | inactive
BNIP3L | 0.32 | migration z between -2 and 2; enough cells | 0.97 | 5128 | inactive
IREB2 | -0.68 | migration z between -2 and 2; enough cells | 0.68 | 5694 | inactive
NUDT1 | -0.86 | migration z between -2 and 2; enough cells | 0.64 | 5732 | inactive
OR2M4 | 0.84 | migration z between -2 and 2; enough cells | 1.1 | 5500 | inactive
